{"source": "PubChem BioAssay AID485314", "about": "(National Center for Advancing Translational Sciences (NCATS), 2010)", "note": "Out of some 340,000 compounds screened, about 4,500 (1.3%) were called active. Inconclusive results, whose numbers are uncertain, are shown with a selection of clear calls. Calls come from the whole dose curve; as a rule, active = well fitted inhibition curve with a large enough effect; inconclusive = small, poorly fitted or top-dose-only effect, or another doubt; inactive = no such curve, though single readings can be large or run the other way. A potency beside an inconclusive call is a rough fit, not a confirmed value. % is set by controls: 0 for no effect and ±100 for the full control effect; potency is the fitted concentration of half-maximal effect."}
{"biological_target": "DNA polymerase beta (Homo sapiens) (UniProt P06746)", "test": "qHTS Assay for Inhibitors of DNA Polymerase Beta", "settings": "Pol beta primer extension/strand displacement, fluorescence kinetic; activity change, negative = inhibition: at 114 µM (top of the series)", "how_it_was_run": "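Human Pol beta at 10 nM; strand-displacement substrate 50 nM final. Compound exposure 15 min at room temperature before start, reaction 10 min at room temperature.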"}
{"smiles": "C[C@H]1CN=C(Nc2ccccc2)N1CCC1CCCC1", "activity change, negative = inhibition": "inactive: 13.5%"}
{"smiles": "COc1ccc(N(CC(=O)NCc2ccc(Cl)cc2)S(=O)(=O)c2c(C)n[nH]c2C)cc1", "Potency": "inconclusive: 31.6 µM [inhibitor, single point]"}
{"smiles": "Cc1ccc(NC(=O)CN2CCc3ccccc3C2)cc1F", "Potency": "inconclusive: 79.4 µM [inhibitor, single point]"}
{"smiles": "Cn1c(N)c(C(=O)COC(=O)CSc2cccc3cccc(Cl)c23)c(=O)n(C)c1=O", "Potency": "inconclusive: 11.2 µM [inhibitor, partial curve]"}
{"smiles": "CS(=O)c1ccccc1O", "note": "(stereo not given)", "activity change, negative = inhibition": "inactive: 4.47%"}
{"smiles": "CCOc1ccc2[nH]c(C(=O)N/N=C/c3cc(OC)c(OC)c(OC)c3)cc2c1", "Potency": "active: 12.6 µM"}
{"smiles": "CCc1ccc(S(=O)(=O)Nc2cc(SCC(=O)O)c(O)c3ccccc23)cc1", "Potency": "inconclusive: 10 µM [inhibitor, partial curve, poor fit]"}
{"smiles": "CCN(CC)CCOC(=O)c1ccc(N/C=C(/C#N)c2nc(-c3ccc(OC)cc3)cs2)cc1", "activity change, negative = inhibition": "inconclusive: -62.9% [inhibitor]"}
{"smiles": "COc1cc(SC)ccc1C(=O)NCCc1c[nH]c2ccccc12", "Potency": "inconclusive: 39.8 µM [inhibitor, single point]"}
{"smiles": "COc1ccc(OC)c(C2/C(=C(/O)c3ccccc3)C(=O)C(=O)N2Cc2ccco2)c1", "note": "(stereo not given)", "activity change, negative = inhibition": "inactive: 20.1%"}
{"smiles": "Cc1cccc(NC(=O)c2ccccc2OCC(=O)N2CCCC2)c1C", "Potency": "inconclusive: 2.82 µM [inhibitor, single point]"}
{"smiles": "O=C(COc1ccccc1)Nc1ccc(S(=O)(=O)NCc2ccco2)cc1", "Potency": "active: 44.7 µM"}
{"smiles": "Cc1nc(NCc2ccco2)c2c3c(sc2n1)CCC3", "Potency": "inconclusive: 25.1 µM [inhibitor, full curve, poor fit]"}
{"smiles": "O=C(Nc1ccc2ncccc2c1)Nc1ccc2ncccc2c1", "Potency": "inconclusive: 70.8 µM [inhibitor, single point]"}
{"smiles": "CSc1ccccc1NC(=O)c1noc2c1CCC2", "Potency": "active: 10 µM"}
{"smiles": "O=C(NCCCN1CCCC1=O)c1cc2nc(-c3ccco3)cc(C(F)(F)F)n2n1", "activity change, negative = inhibition": "inconclusive: -42.3% [inhibitor]"}
{"smiles": "CSc1nc2ccccc2n1Cc1c(Cl)cccc1Cl", "Potency": "inconclusive: 89.1 µM [inhibitor, single point]"}
{"smiles": "CC(C)Cn1c(=O)c2ccccc2n2c(CCC(=O)Nc3ccc(F)cc3)nnc12", "activity change, negative = inhibition": "inactive: 41.3%"}
{"smiles": "Cc1no[n+]([O-])c1COc1cccc(/C=N/Nc2nncn2N)c1", "Potency": "inconclusive: 89.1 µM [inhibitor, single point]"}
{"smiles": "CCOCCn1cnc2sc(C(=O)Nc3ccccc3C(=O)OC)c(C)c2c1=O", "activity change, negative = inhibition": "inactive: 3.2%"}
{"smiles": "COc1ccc(-n2cc(CNCCN3CCOC3=O)c(-c3ccccc3Cl)n2)cc1", "Potency": "inconclusive: 89.1 µM [inhibitor, single point]"}
{"smiles": "Clc1cccc(C2=NC(c3cccs3)=Nc3ccc(Br)cc3N2)c1", "activity change, negative = inhibition": "inactive: -4.54%"}
{"smiles": "CCc1ccc(NC(=O)CN2C(=O)c3ccccc3Sc3ccc(C(=O)N4CCCC4)cc32)cc1", "Potency": "inconclusive: 44.7 µM [inhibitor, partial curve, poor fit]"}
{"smiles": "COc1ccc(CNC(=O)c2sc3nc4n(c(=O)c3c2C)CCCCC4)cc1", "Potency": "inconclusive: 89.1 µM [inhibitor, single point]"}
{"smiles": "Cc1nc(-c2ccc(S(=O)(=O)Nc3ccc(Cl)c(C(F)(F)F)c3)cc2)co1", "activity change, negative = inhibition": "inactive: -0.551%"}
{"smiles": "CN1CCN(S(=O)(=O)c2ccc(NC(=S)NC(=O)C3CCCC3)cc2)CC1", "Potency": "inconclusive: 56.2 µM [inhibitor, partial curve]"}
{"smiles": "CCOc1ccccc1CNC(=O)c1cnc2sc(N(CC)CC)nn2c1=O", "activity change, negative = inhibition": "inactive: 1.17%"}
{"smiles": "O=C1CC(=O)N(c2cccc(F)c2)N1", "Potency": "inconclusive: 14.1 µM [inhibitor, single point]"}
{"smiles": "Cc1cc(OCCN2CCC(Cc3ccccc3)CC2)ccc1[N+](=O)[O-]", "activity change, negative = inhibition": "inactive: 0.358%"}
{"smiles": "CCOC(=O)N1CCN(CC(=O)Nc2cc(OCC)ccc2OCC)CC1", "activity change, negative = inhibition": "inactive: -7.19%"}
{"smiles": "O=C(Nc1ccc(-c2nc3ccccc3[nH]2)cc1)c1cccc(N2C(=O)CCC2=O)c1", "Potency": "inconclusive: 31.6 µM [inhibitor, partial curve]"}
{"smiles": "O=C(/C(=C\\c1ccccc1)c1nc2ccccc2[nH]1)c1ccc(Cl)cc1", "Potency": "inconclusive: 89.1 µM [inhibitor, single point]"}
{"smiles": "Cc1cc(NC(=O)c2nn(C)c(C)c2Br)no1", "Potency": "inconclusive: 89.1 µM [inhibitor, single point]"}
{"smiles": "Cc1cccc(CSc2nnc(CCNC(=O)OC(C)(C)C)o2)c1", "Potency": "inconclusive: 79.4 µM [inhibitor, single point]"}
{"smiles": "Cc1cc(N/N=C/c2ccc(O)cc2O)nc(N2CCOCC2)n1", "Potency": "inconclusive: 56.2 µM [inhibitor, partial curve]"}
{"smiles": "CCOc1ccc(N(C)C(=O)c2oc(=O)c3ccccc3c2-c2ccccc2)cc1", "Potency": "inconclusive: 70.8 µM [inhibitor, partial curve, poor fit]"}
{"smiles": "CCc1ccc(-c2nc(CS(=O)CC(=O)NCCc3ccc(C)cc3)c(C)o2)cc1", "note": "(stereo not given)", "Potency": "inconclusive: 89.1 µM [inhibitor, single point]"}
{"smiles": "N#Cc1c(N)sc(=S)c2c1CCCC2", "Potency": "inconclusive: 15.8 µM [inhibitor, partial curve]"}
{"smiles": "Cc1ccc(CNC(=O)C(=O)Nc2c3c(nn2-c2ccc(F)cc2)CSC3)cc1", "Potency": "inconclusive: 39.8 µM [inhibitor, partial curve, poor fit]"}
{"smiles": "CCOC(=O)C1=C(C)NC(=O)NC1c1ccccc1Cl", "note": "(stereo not given)", "Potency": "inconclusive: 89.1 µM [inhibitor, single point]"}
{"smiles": "Cc1ccc(S(=O)(=O)Cc2ccc(C(=O)NCCc3ccccc3)o2)cc1", "Potency": "inconclusive: 0.112 µM [inhibitor, full curve, poor fit]"}
{"smiles": "Cc1ccc(C2C3=C(CC(C)(C)CC3=O)N=C3c4ccccc4C(=O)C32)cc1", "note": "(stereo not given)", "Potency": "inconclusive: 39.8 µM [inhibitor, partial curve, poor fit]"}
{"smiles": "C=CCc1cccc(/C=N/n2cnnc2)c1O", "activity change, negative = inhibition": "inactive: -0.906%"}
{"smiles": "CCc1c(C)c2ccc(O)c(CN3CCN(c4cc(Cl)ccc4C)CC3)c2oc1=O", "activity change, negative = inhibition": "inactive: -1.03%"}
